# Measurements reported in PubChem BioAssay AID504774 (Drosophila RNAi Screening Center, 2011).
# Screen: 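Genes required for cells to withstand methyl methanesulphonate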 (primary screen)
# Cells: Drosophila Kc167 cells
# Reagents: long dsRNA against Drosophila genes, about 0.25 µg dsRNA per well
# Duration: about 6 days: 3 days knock-down, then 3 days with or without MMS
# Treatment: methyl methanesulphonate 0.004% (w/v) for 3 days after knock-down
# Detection: 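Viability in wells given MMS, read as ATP luminescence, normalised by quantiles plate by plate and averaged across replicates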
# Scale: mean viability with MMS and viability with MMS: higher = more surviving cells after MMS
# The deposit covers about 23,000 reagents; below is a random part of those with a known target gene and a result. 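Values are quantile-normalised luminescence on an arbitrary scale; higher means more cells surviving MMS.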 Names joined by + are all predicted targets of the reagent.
predicted target,dsRNA,mean viability with MMS,"viability with MMS, replicate 1","viability with MMS, replicate 2"
CG34150,DRSC13689,3.54e6,4.03e6,4.01e6
sima,DRSC17055,3.10e6,3.58e6,3.54e6
sima,DRSC23203,3.23e6,3.63e6,3.65e6
Shawl,DRSC02209,3.55e6,4.09e6,3.96e6
Shawl,DRSC02748,3.70e6,4.35e6,4.04e6
Atg8a,DRSC18024,3.57e6,4.04e6,4.04e6
Myc,DRSC18762,2.83e6,3.61e6,3.62e6
Sumo,DRSC03611,2.80e6,2.97e6,3.14e6
CG13937,DRSC08406,1.81e6,4.01e6,
CG5404,DRSC15793,3.29e6,3.69e6,3.79e6
Cp7Fb,DRSC18034,3.48e6,3.97e6,3.93e6
lncRNA:CR42862 + CG33229,DRSC08497,3.53e6,3.99e6,4.02e6
MYPT-75D,DRSC10743,3.71e6,4.14e6,4.21e6
Osi20,DRSC12568,3.55e6,4.06e6,4.01e6
tej,DRSC07219,3.49e6,3.85e6,4.00e6
CG17361,DRSC10266,3.44e6,3.86e6,3.91e6
Larp7,DRSC18798,3.40e6,3.88e6,3.85e6
CG15471,DRSC18054,3.65e6,4.10e6,4.19e6
CG13996,DRSC02328,3.53e6,3.97e6,4.02e6
SmD3,DRSC07553,3.04e6,3.07e6,3.77e6
CG2100,DRSC12303,3.54e6,4.08e6,3.95e6
CG14826,DRSC10197,3.44e6,3.88e6,3.92e6
CG42697,DRSC05740,3.51e6,3.93e6,4.04e6
RhoGAP71E,DRSC10232,3.44e6,3.82e6,3.97e6
RhoGAP71E,DRSC10837,3.20e6,3.65e6,3.64e6
RhoGAP71E,DRSC10838,3.59e6,4.01e6,4.14e6
CG13870,DRSC06429,3.33e6,3.67e6,3.83e6
CG9389,DRSC11857,3.42e6,3.95e6,3.78e6
CG10465,DRSC04848,3.51e6,3.93e6,4.01e6
Upf3,DRSC04092,3.52e6,4.04e6,3.90e6
rdo,DRSC02452,3.33e6,3.68e6,3.83e6
Osi2,DRSC12174,3.51e6,4.01e6,3.96e6
CG6435,DRSC06987,3.64e6,4.06e6,4.15e6
CG31673,DRSC03207,3.47e6,3.74e6,3.99e6
Vps13B,DRSC15060,3.52e6,4.00e6,3.96e6
Exo70,DRSC10774,3.46e6,3.96e6,3.88e6
SRPK,DRSC07090,3.68e6,4.26e6,4.10e6
Bub1,DRSC02357,2.89e6,3.16e6,3.20e6
Bub1,DRSC23158,3.45e6,3.82e6,4.02e6
CG33969 + fbl,DRSC11886,3.59e6,4.08e6,4.04e6
CG9132,DRSC20159,3.72e6,4.43e6,4.05e6
dcma,DRSC00246,3.62e6,4.08e6,4.14e6
dcma,DRSC00338,3.74e6,4.21e6,4.15e6
Buffy,DRSC05957,3.59e6,4.05e6,4.11e6

Continued (6 carried over from the part before).
predicted target,dsRNA,mean viability with MMS,"viability with MMS, replicate 1","viability with MMS, replicate 2"
Bub1,DRSC23158,3.45e6,3.82e6,4.02e6
CG33969 + fbl,DRSC11886,3.59e6,4.08e6,4.04e6
CG9132,DRSC20159,3.72e6,4.43e6,4.05e6
dcma,DRSC00246,3.62e6,4.08e6,4.14e6
dcma,DRSC00338,3.74e6,4.21e6,4.15e6
Buffy,DRSC05957,3.59e6,4.05e6,4.11e6
CG8777,DRSC07263,3.44e6,3.87e6,3.88e6
mia,DRSC12137,3.60e6,4.08e6,4.13e6
CG3857,DRSC18542,3.68e6,4.23e6,4.07e6
Sec15,DRSC16179,3.65e6,4.44e6,3.83e6
CG6059,DRSC15958,3.58e6,4.07e6,4.04e6
CG7276,DRSC10797,3.60e6,4.04e6,4.13e6
CG13337,DRSC06371,3.63e6,4.14e6,4.09e6
Syb,DRSC07559,3.52e6,3.95e6,4.01e6
AGO2,DRSC09999,3.30e6,3.66e6,3.75e6
AGO2,DRSC10847,3.57e6,4.10e6,3.98e6
Hk,DRSC17638,3.54e6,3.98e6,4.06e6
Hk,DRSC18674,3.33e6,3.78e6,3.80e6
CG15891 + CG15892,DRSC18095,3.53e6,3.76e6,4.14e6
CG15891 + CG15892,DRSC18096,3.57e6,4.00e6,4.12e6
CG32750,DRSC18848,3.58e6,4.05e6,4.07e6
gnu,DRSC10497,3.59e6,4.13e6,4.02e6
Fcp1,DRSC04121,3.55e6,4.00e6,4.01e6
dmrt93B,DRSC15865,3.49e6,3.93e6,4.00e6
AttA,DRSC05926,3.44e6,3.80e6,3.97e6
SmydA-6,DRSC07341,3.60e6,4.02e6,4.13e6
CG7519,DRSC11834,3.55e6,4.10e6,3.94e6
CG9784,DRSC20210,3.53e6,3.96e6,4.05e6
CG14483,DRSC06455,3.60e6,4.18e6,3.97e6
Ldh,DRSC11198,3.52e6,4.36e6,3.63e6
